# This is one part of the list. These are further read-outs of the screen, such as a control signal, another cell line or another target. No call is given for them. The list favours compounds with an active or inconclusive main result. The note in brackets gives the kind of curve behind each potency; many fits are weak.
# Assay: qHTS Assay for Lipid Storage Modulators in Drosophila S3 Cells;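 for cell number change: cells counted by Cell Tracker Red CMTPX staining in the red channel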
# Settings: BODIPY lipid droplet fluorescence, 18-24 h; for cell number change: measured here: cell count max response, cells fed with added oleic acid
# How it was run: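 Laser-scanning cytometry quantifies lipid droplet accumulation (500–530 nm total intensity; droplet/cell object ratio) in oleic acid-fed (400 uM added) Drosophila S3 cells treated with a concentration series. 20 uM Triacsin C defined 100% inhibition.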
# [1] = measured here: cell number channel AC50, cells fed with added oleic acid
# [2] = measured here: lipid fluorescence (Fed channel) AC50, cells fed with added oleic acid
Structure (SMILES),cell number change,AC50 [1],AC50 [2]
O=C1CNC(=S)N1C(CO)c1ccccc1 (stereo not drawn),-33.8%,"0.461 µM [falling, full curve, poor fit]",–
Cc1cccc(C)c1NC(=O)CS(=O)CC(=O)Nc1ccc(N2CCOCC2)cc1 (stereo not drawn),25.8%,–,"0.164 µM [falling, single point]"
CCOc1cccc(CN2CCC(N3CCC(C(=O)NCC4CCCO4)CC3)CC2)c1 (stereo not drawn),7.78%,–,–
Cc1nc(NC(=O)CCCC(=O)Nc2nc(C)c(C)s2)sc1C,-29.2%,–,"29.1 µM [falling, single point]"
COc1ccc2nc(N3CCN(C(=O)c4ccc5ncsc5c4)CC3)sc2c1,-9.79%,"6.51 µM [falling, single point]",–
CCOc1ccccc1N1CCN(C(=O)CNC(=O)c2ccc(OC)c(OC)c2)CC1,-18.1%,–,"29.1 µM [falling, single point]"
CCOCCN(C=O)c1cccc(OC)c1,-0.668%,–,–
O=C(CN1CCCCC1)Nc1ccc(S(=O)(=O)NC2CCCCC2)cc1,14.9%,–,–
COc1ccc2nc3cc(Cl)ccc3c(Nc3cc(C(C)C)c(O)cc3C)c2c1,-63.9%,"23.1 µM [falling, partial curve]","20.6 µM [falling, partial curve]"
C#CCOCCOCCOCCNc1nc(N2CCOCC2)nc(N2CCN(C(=O)CCCCCCCCCCNC(=O)[C@H]([C@@H](C)CC)n3cc(CCCCN=C(N)N)nn3)CC2)n1,11.9%,–,"0.00411 µM [falling, full curve, poor fit]"
COc1ccc(NC(=O)CCN=C2NS(=O)(=O)c3ccccc32)cc1S(=O)(=O)N(C)C,7.57%,–,–
COc1cc(SC)ccc1C(=O)NCCCn1ccnc1,15.5%,–,–
O=C(O)c1cccc(NC(=O)c2ccccc2NC(=O)c2cccc([N+](=O)[O-])c2)c1,-15.7%,–,"6.51 µM [rising, single point]"
CC(C)OP(C)(=O)CN1CCN(CP(C)(=O)OC(C)C)CC1 (stereo not drawn),-14.5%,–,"0.82 µM [falling, full curve, poor fit]"
CCCn1cc(SCC(=O)Nc2ccc3c(c2)OCO3)c2ccccc21,6.87%,"1.64 µM [rising, partial curve, poor fit]","0.461 µM [rising, full curve, poor fit]"
S=C(NCCc1ccccc1)Nc1ccc(Br)cn1,-60.4%,–,–
CC(C)Cc1nnc(NC(=O)CCC(=O)N2CCN(Cc3ccc(Cl)cc3)CC2)s1,10.1%,–,"6.51 µM [rising, single point]"
Cc1c(NC(=O)/C(C#N)=C/c2cccs2)c(=O)n(-c2ccccc2)n1C,11.9%,–,–
Nc1n[nH]c(-c2ccc(F)cc2)n1,11.2%,–,"2.59 µM [rising, partial curve]"
CCCC(=O)Nc1nnc(SCC(=O)NCc2cccs2)s1,7.9%,–,"1.84 µM [rising, partial curve]"

# Entries of single compounds from above. Values in the order: cell number change	AC50 [1]	AC50 [2]
# CCCn1cc(SCC(=O)Nc2ccc3c(c2)OCO3)c2ccccc21 as listed: 6.87%	1.64 µM [rising, partial curve, poor fit]	0.461 µM [rising, full curve, poor fit]
# S=C(NCCc1ccccc1)Nc1ccc(Br)cn1 as listed: -60.4%	–	–
# CCOc1cccc(CN2CCC(N3CCC(C(=O)NCC4CCCO4)CC3)CC2)c1 (stereo not drawn) as listed: 7.78%	–	–

# (further entries)

Structure (SMILES),cell number change,AC50 [1],AC50 [2]
Cc1ccc(NC(=O)CSc2nn3c(=O)c(C)nnc3s2)cc1Cl,-6.54%,–,"29.1 µM [falling, single point]"
COc1cccc(NC(=O)CSc2nc3ccccc3c3nc4ccccc4n23)c1,9.7%,–,"0.461 µM [rising, full curve]"
Cc1cc(C)c2c(N)c(C(=O)NN3CC(=O)N(c4ccccc4F)CC3=O)sc2n1,23.9%,"3.26 µM [rising, single point]","18.4 µM [rising, single point]"
CCCOc1c(Br)cc(C(N)=O)cc1OCC,–,"0.92 µM [falling, partial curve, poor fit]","0.326 µM [falling, full curve, poor fit]"
O=C1CC2(CCN(S(=O)(=O)c3ccccc3)CC2)Oc2ccccc21,9.34%,–,"0.00461 µM [falling, full curve, poor fit]"
Cn1c(CCN2CCN(c3ccccn3)CC2)nc2cc(NS(=O)(=O)c3ccc(Cl)cc3)ccc21,-29%,"2.31 µM [falling, full curve, poor fit]","0.731 µM [falling, partial curve, poor fit]"
CC(C)Cc1nnc(NC(=O)CCC(=O)Nc2ccc(Cl)cc2)s1,-1.53%,–,"0.82 µM [rising, single point]"
CCOC(=O)c1c(C)n(-c2ccc(C)cc2)c2ccc(OCC(O)CN3CCN(C)CC3)cc12 (stereo not drawn),-28%,–,"0.731 µM [falling, full curve, poor fit]"
O=[N+]([O-])c1cc(C(F)(F)F)ccc1Sc1nccn1Cc1ccccc1,129%,"18.4 µM [rising, single point]","29.1 µM [rising, single point]"
COc1cccc(NC(=S)N(Cc2ccco2)C(C)c2ccco2)c1 (stereo not drawn),9.13%,–,"6.51 µM [rising, single point]"
Cc1ccc(Cn2cccc2/C=C2/C(=N)N3C=CSC3=NC2=O)cc1,-24.6%,–,"16.4 µM [falling, single point]"
Cc1cccc(CCN2C(Nc3ccccc3)=NC[C@@H]2C)c1,27.4%,–,–
C=CCNC(=O)C1CC(=O)N(c2ccc(OCC(=O)N3CCCC3)cc2)C1 (stereo not drawn),1.39%,"6.51 µM [rising, single point]",–
Cc1cccc(-n2nc(C(=O)Nc3ccccc3)n3c(=O)cc(-c4ccccc4)nc23)c1,31.5%,"29.1 µM [rising, single point]","0.0326 µM [rising, full curve, poor fit]"
CC(C)(C)NC(=O)COC(=O)c1ccc(NC(=O)CC#N)cc1,46.6%,"29.1 µM [rising, single point]",–
CC(=O)c1ccc(NC(=S)NCCc2cccc(Cl)c2)cc1,-21.7%,–,"29.1 µM [falling, single point]"
COc1ccccc1CNC(=O)c1cc(-c2ccccc2C)n(CC2CC(c3cccc([N+](=O)[O-])c3)=NO2)n1 (stereo not drawn),-27.4%,–,–
CC(C)C(=O)N(Cc1ccc2c(c1)OCO2)Cc1ccccn1,-0.953%,–,–
CN(C)CCCN(C(=O)c1ccc(S(=O)(=O)N2CCc3ccccc32)cc1)c1nc2ccc(Cl)cc2s1,56.9%,–,"16.4 µM [rising, partial curve]"
CC(=O)N1CCC(C(=O)NC2CC(C)(C)Cc3c2cnn3-c2ccc(F)cc2)CC1 (stereo not drawn),-3.57%,–,"0.00517 µM [falling, full curve, poor fit]"

Structure (SMILES),cell number change,AC50 [1],AC50 [2]
CCOc1cccc2sc(N(CCN(CC)CC)C(=O)c3cccc(N4C(=O)CCC4=O)c3)nc12,-17.9%,–,"25.9 µM [falling, partial curve, poor fit]"
Cc1ccc(-n2c(SCc3nnc4n3CCC4)nnc2-c2ccccc2)cc1,30.9%,"10.3 µM [rising, single point]",–
Cc1c(C(=O)O)c(C(=O)O)nc2ccc(N3CCOCC3)cc12,-29.9%,–,"29.1 µM [falling, single point]"
COc1ccccc1C(CNC(=O)C1CC(=O)N(Cc2ccc(C)cc2)C1)N1CCCC1 (stereo not drawn),–,–,"18.4 µM [rising, single point]"
COc1ccccc1N1C(=O)C2CCC(c3ccccc3)CC2C1=O (stereo not drawn),31.2%,"16.4 µM [rising, single point]","18.4 µM [rising, partial curve]"
Cc1cc(S(=O)(=O)N2CCCCC2CCNC(=O)C(=O)NCC2CCCO2)ccc1F (stereo not drawn),2.19%,"7.31 µM [falling, single point]","6.51 µM [falling, partial curve, poor fit]"
CCCC(c1nnnn1Cc1ccco1)N1CCN(C2CCCC2)CC1 (stereo not drawn),-51.8%,"5.17 µM [falling, full curve]","16.4 µM [falling, partial curve]"
CCc1nnc(SCC(=O)Nc2ccc(N3CCN(S(C)(=O)=O)CC3)cc2)o1,5.13%,–,"29.1 µM [rising, single point]"
O=C(NCCc1cccc(F)c1)C1CCCN(c2nc3ccccc3s2)C1 (stereo not drawn),-13.3%,–,–
Cc1nnsc1-c1nnc(SCC(=O)c2ccc(F)cc2)n1C1CC1,11.1%,–,"0.411 µM [rising, full curve, poor fit]"
CCCCn1c(N)c(N(Cc2ccccc2OC)C(=O)c2cc(CC)c(C)s2)c(=O)[nH]c1=O,11.8%,–,"0.082 µM [rising, full curve, poor fit]"
CCCCN(CC)S(=O)(=O)c1ccc(C(=O)Nc2nnc(-c3cccs3)o2)cc1,94.5%,"23.1 µM [rising, single point]","0.092 µM [falling, full curve, poor fit]"
COc1ccccc1CNC(=O)C1CCCC1,7.26%,–,"29.1 µM [rising, single point]"
CC(=O)NS(=O)(=O)c1ccc(NC(=O)CC(C)c2ccccc2)cc1 (stereo not drawn),9.76%,–,"0.00517 µM [falling, full curve, poor fit]"
O=C(O)c1cc(/C=C/c2ccc(N3CCOCC3)cc2)nc2ccccc12,-52.9%,"29.1 µM [falling, partial curve, poor fit]",–
O=C(CN1C(=O)CSc2cc(S(=O)(=O)N3CCCCCC3)ccc21)NCCc1ccccc1,9.8%,–,"8.2 µM [rising, partial curve]"
COc1cc2c(cc1OC)CN(C(=O)c1ccc(OC)c(S(=O)(=O)N3CCCC3)c1)CC2,–,"0.461 µM [falling, partial curve, poor fit]",–
Cc1ccccc1C(CC(=O)c1cccs1)C(C#N)C#N (stereo not drawn),-26.7%,–,"18.4 µM [falling, single point]"

# — PubChem BioAssay AID2685 (National Center for Advancing Translational Sciences (NCATS), 2010)
